Reference: article PMC10065074
No constants are given. Whether binding was seen depends on the method and setting. Binding seen in cells or lysates may run through a third protein. These calls come from enrichment with a bait or labelling near it, and not all partners need be listed.

Protein sequences, listed by entry. Tags and fused reporters are not part of them. Lines headed by an entry give the natural chain unless they say otherwise; changes in a name come on top. Residues count along the entry.
UniProt Q9BTU6: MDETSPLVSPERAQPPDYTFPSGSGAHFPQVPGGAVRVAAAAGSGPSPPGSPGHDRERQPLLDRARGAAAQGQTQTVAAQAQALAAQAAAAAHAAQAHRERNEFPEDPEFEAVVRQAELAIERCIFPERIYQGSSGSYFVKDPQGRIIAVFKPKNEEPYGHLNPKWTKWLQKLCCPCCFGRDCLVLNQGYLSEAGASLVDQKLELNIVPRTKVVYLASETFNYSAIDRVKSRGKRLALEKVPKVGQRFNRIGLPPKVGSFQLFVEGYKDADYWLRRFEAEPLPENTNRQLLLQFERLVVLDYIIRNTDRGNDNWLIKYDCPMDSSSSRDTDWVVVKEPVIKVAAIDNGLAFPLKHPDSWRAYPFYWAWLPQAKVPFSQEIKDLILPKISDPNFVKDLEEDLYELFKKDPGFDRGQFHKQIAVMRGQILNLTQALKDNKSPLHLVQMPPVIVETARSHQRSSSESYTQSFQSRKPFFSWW
UniProt P05556: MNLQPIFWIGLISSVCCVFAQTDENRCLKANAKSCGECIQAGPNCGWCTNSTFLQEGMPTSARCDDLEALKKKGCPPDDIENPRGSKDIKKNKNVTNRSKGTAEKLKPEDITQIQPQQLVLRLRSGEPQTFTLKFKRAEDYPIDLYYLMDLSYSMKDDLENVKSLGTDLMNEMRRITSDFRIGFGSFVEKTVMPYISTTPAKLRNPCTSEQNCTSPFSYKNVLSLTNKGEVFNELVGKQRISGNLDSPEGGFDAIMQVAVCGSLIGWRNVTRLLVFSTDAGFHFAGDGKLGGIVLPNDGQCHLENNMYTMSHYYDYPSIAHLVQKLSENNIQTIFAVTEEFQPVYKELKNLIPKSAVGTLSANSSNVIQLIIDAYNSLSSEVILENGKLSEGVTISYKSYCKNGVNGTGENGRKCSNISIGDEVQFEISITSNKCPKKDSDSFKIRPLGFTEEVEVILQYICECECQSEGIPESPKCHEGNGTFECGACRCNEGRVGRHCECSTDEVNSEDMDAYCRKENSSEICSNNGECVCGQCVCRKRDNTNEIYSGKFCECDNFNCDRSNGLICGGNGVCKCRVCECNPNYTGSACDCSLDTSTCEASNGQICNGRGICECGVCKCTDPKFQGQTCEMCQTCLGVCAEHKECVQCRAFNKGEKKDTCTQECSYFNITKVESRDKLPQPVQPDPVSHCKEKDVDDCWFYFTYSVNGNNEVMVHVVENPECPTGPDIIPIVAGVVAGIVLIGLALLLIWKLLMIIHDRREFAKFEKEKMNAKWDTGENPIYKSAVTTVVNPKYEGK
UniProt P30530, residues 26-894: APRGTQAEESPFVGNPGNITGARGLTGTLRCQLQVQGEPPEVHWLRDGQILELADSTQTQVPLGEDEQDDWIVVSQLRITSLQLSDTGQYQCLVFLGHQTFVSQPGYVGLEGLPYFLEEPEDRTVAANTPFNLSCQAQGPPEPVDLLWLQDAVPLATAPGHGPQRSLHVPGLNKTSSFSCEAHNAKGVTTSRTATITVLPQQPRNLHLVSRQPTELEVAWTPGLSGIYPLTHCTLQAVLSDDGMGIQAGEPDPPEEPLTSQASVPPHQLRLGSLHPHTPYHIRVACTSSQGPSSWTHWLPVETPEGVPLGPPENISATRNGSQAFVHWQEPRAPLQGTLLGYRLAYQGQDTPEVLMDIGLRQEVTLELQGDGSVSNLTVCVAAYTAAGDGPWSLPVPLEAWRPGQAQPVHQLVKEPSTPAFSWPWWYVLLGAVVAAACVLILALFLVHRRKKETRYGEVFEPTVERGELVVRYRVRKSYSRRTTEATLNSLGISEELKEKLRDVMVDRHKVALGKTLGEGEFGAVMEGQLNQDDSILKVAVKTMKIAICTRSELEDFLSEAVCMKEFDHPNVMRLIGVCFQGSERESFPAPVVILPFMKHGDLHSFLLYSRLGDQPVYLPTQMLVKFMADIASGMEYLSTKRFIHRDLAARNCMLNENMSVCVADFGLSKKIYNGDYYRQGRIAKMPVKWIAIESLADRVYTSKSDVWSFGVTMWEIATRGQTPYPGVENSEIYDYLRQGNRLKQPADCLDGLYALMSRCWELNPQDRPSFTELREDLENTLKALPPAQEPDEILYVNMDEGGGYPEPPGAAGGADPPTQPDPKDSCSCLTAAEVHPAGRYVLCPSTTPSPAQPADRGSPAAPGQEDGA
UniProt P16070, residues 21-742: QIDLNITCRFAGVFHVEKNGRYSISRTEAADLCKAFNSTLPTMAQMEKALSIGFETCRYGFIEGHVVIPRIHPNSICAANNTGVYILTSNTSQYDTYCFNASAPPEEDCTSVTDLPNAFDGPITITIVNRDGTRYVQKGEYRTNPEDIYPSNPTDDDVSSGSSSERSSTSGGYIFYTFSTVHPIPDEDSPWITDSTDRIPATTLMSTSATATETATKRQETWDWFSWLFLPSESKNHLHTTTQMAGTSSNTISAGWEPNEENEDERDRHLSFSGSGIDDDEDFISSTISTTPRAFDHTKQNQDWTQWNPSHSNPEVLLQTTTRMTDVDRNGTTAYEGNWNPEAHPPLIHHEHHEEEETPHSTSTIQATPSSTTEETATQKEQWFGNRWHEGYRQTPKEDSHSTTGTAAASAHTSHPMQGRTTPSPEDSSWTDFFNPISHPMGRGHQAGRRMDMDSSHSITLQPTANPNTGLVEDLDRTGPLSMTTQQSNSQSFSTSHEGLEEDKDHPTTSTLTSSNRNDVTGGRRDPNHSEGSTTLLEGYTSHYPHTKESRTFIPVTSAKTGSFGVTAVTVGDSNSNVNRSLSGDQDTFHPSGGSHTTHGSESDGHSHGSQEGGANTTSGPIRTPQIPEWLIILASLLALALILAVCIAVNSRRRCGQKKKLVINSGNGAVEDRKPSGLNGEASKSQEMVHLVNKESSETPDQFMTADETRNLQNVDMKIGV
UniProt P35579: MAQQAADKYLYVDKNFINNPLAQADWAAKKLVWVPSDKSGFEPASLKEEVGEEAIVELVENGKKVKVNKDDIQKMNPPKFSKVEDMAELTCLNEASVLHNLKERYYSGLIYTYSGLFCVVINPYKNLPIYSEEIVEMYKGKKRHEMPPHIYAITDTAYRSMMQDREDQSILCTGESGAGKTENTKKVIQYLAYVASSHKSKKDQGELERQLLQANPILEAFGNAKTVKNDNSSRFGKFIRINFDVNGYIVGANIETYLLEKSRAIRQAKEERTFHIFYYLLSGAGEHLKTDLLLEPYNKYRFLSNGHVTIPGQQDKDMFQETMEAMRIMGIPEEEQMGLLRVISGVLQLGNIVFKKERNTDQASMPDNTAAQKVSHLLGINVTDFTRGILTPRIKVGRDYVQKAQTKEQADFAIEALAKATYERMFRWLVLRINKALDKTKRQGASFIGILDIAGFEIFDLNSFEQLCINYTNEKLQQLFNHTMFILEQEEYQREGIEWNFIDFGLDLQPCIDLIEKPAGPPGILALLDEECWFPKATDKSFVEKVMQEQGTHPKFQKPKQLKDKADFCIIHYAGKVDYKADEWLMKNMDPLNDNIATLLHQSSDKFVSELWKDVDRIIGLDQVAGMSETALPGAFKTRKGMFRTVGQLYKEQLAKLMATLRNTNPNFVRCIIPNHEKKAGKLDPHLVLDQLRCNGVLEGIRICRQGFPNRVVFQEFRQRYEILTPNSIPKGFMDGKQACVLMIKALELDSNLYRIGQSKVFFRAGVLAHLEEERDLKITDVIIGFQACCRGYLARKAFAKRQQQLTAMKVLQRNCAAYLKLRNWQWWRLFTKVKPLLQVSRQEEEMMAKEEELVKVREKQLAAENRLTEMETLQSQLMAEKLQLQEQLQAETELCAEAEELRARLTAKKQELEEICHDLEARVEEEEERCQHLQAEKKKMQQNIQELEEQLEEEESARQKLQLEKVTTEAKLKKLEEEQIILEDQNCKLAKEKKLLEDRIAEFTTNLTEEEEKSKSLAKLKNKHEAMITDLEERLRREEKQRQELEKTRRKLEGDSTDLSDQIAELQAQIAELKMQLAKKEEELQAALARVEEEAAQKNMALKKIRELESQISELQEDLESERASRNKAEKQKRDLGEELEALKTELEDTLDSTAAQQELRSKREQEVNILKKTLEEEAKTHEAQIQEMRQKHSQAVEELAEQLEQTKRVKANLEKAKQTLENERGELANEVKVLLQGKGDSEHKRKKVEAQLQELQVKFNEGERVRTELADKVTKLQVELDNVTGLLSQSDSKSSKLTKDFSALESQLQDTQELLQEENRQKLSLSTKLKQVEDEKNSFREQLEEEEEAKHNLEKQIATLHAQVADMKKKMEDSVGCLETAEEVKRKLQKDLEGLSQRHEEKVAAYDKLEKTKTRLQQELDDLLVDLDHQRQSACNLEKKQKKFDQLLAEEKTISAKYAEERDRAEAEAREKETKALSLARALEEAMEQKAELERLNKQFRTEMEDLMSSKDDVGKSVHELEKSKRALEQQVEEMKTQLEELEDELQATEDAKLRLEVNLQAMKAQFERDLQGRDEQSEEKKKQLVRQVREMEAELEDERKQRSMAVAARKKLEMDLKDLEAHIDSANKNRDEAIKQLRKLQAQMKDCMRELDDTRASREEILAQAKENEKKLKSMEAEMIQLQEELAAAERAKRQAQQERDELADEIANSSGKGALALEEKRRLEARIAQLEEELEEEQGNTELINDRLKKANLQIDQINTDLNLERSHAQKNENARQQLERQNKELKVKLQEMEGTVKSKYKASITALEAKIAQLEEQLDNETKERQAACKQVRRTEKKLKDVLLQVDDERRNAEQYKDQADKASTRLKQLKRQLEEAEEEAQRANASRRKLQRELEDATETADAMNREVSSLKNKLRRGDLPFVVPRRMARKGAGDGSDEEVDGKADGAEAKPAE

Legend:
[1] = molecular target: PI4K2A/TurboID fusion construct (UniProt Q9BTU6); assay: proximity labelling; TurboID-PI4K2A transfected into H1299 cells, with or without 100 μM biotin for 1 hour; biotinylated proteins purified on streptavidin agarose beads; LC-MS
[2] = molecular target: PI4K2A/TurboID fusion construct (UniProt Q9BTU6); assay: proximity labelling; H1299 cells transfected with the PI4K2A/TurboID construct and treated with biotin; streptavidin bead-enriched samples; WB
[3] = molecular target: hemagglutinin-tagged (HA-tagged) PI4K2A (human) (UniProt Q9BTU6); assay: affinity purification with mass spectrometry; HA-PI4K2A stably expressed in PI4K2A-deficient H1299 cells; lysates immunoprecipitated by HA-tag antibody, isolated on Protein G beads; LC-MS

Row | Substance | binding [1] | binding [2] | binding [3]
1 | integrin-β1 (from UniProt P05556 21-798) (receptor) | binds | binds | 
2 | AXL receptor tyrosine kinase (from UniProt P30530 26-894) | binds |  | 
3 | CD44 molecule (from UniProt P16070 21-742) (receptor) | binds | binds | 
4 | myosin heavy chain 9 (from UniProt P35579 1-1960) | binds |  | binds
